From the supplement of paper PMC12067093, “Discovery and optimisation of a covalent ligand for TRIM25 and its application to targeted protein ubiquitination” (Chemical Science, 2025)
The list shows a part of the results.

By UniProt entry, the sequences of proteins in these tests, tags left out. Where a name states a change or a piece, a line headed by the entry shows the natural chain unless it says otherwise.
UniProt P29144: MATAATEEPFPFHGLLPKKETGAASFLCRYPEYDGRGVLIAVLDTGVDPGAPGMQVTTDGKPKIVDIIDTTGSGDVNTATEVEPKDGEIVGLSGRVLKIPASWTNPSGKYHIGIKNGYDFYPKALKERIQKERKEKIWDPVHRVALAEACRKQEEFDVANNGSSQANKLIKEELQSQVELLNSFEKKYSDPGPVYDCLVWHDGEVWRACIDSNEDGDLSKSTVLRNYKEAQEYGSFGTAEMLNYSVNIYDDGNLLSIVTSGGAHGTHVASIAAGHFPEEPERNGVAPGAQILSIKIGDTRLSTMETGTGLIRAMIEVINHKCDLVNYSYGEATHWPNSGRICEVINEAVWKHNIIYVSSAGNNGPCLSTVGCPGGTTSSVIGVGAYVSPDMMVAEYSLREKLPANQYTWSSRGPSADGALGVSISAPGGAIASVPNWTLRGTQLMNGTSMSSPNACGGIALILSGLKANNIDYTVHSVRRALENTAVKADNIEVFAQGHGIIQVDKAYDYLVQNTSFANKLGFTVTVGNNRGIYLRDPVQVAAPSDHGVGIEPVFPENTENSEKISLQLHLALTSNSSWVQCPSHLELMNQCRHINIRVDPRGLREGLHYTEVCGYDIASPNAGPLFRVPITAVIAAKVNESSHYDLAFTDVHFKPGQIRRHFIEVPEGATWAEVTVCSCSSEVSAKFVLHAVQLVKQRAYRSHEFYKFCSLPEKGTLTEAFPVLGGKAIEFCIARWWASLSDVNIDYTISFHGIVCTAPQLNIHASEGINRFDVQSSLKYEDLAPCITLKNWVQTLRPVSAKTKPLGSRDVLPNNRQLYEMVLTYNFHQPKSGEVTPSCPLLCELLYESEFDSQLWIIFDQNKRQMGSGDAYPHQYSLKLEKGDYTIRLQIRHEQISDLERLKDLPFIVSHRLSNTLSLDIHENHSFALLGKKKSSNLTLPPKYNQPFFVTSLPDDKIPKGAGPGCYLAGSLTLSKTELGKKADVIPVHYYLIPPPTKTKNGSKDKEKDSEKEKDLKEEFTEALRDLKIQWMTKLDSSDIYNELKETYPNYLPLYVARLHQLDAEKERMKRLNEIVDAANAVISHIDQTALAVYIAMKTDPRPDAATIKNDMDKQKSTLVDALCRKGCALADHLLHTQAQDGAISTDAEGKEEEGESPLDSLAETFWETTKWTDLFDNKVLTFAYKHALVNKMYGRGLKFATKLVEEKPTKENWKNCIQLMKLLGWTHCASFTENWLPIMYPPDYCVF
UniProt O14545: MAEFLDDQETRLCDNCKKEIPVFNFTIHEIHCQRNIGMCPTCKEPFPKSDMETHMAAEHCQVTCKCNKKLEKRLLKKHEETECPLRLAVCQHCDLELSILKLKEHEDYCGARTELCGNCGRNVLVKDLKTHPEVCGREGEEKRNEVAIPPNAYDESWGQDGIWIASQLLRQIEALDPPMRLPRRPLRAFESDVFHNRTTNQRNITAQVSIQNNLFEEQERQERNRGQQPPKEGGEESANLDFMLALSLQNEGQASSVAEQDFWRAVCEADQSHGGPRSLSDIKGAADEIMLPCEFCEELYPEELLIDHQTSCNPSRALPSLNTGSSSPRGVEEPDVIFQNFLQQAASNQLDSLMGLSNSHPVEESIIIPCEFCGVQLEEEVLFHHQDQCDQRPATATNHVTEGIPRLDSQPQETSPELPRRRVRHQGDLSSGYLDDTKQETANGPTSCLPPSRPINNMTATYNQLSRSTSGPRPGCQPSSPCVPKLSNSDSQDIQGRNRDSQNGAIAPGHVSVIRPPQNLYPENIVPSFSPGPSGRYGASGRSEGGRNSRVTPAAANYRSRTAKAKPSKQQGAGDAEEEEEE
UniProt P06753, whole entry, looked up: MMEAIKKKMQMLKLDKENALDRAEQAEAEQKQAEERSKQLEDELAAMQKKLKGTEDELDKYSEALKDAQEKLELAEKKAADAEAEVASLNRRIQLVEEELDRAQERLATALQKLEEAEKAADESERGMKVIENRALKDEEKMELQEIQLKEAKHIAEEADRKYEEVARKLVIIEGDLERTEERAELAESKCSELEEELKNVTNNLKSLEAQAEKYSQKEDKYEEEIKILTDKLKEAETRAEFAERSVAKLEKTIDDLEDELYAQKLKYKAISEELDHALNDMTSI
UniProt Q14258, whole entry, looked up: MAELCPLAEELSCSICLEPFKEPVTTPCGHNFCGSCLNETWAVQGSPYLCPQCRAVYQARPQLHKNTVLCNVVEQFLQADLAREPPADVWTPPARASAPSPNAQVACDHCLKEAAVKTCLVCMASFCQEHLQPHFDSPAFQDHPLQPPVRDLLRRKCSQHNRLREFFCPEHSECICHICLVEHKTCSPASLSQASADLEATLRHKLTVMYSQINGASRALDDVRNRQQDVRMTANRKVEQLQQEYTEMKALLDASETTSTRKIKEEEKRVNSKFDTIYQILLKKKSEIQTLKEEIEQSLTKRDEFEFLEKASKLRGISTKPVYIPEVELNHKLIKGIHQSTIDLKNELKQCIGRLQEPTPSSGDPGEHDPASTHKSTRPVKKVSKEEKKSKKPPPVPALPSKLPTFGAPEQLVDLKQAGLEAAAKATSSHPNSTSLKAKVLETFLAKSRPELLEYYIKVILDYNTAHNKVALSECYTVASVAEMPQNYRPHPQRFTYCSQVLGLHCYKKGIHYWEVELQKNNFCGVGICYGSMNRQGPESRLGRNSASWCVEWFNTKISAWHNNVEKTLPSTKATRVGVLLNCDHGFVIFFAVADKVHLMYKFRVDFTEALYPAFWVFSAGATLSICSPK
UniProt Q15654: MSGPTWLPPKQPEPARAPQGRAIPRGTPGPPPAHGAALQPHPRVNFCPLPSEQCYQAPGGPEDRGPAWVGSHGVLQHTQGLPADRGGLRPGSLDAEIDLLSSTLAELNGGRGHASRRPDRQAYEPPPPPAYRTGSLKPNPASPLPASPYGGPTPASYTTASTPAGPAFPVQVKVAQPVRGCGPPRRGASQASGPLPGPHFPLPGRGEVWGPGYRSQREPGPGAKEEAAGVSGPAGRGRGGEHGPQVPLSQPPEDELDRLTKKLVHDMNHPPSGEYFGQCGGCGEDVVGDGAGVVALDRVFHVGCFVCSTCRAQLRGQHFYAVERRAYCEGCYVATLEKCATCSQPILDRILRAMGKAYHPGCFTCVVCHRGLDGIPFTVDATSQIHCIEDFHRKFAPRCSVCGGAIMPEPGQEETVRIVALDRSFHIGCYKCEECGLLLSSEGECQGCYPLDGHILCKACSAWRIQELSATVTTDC
UniProt O00635: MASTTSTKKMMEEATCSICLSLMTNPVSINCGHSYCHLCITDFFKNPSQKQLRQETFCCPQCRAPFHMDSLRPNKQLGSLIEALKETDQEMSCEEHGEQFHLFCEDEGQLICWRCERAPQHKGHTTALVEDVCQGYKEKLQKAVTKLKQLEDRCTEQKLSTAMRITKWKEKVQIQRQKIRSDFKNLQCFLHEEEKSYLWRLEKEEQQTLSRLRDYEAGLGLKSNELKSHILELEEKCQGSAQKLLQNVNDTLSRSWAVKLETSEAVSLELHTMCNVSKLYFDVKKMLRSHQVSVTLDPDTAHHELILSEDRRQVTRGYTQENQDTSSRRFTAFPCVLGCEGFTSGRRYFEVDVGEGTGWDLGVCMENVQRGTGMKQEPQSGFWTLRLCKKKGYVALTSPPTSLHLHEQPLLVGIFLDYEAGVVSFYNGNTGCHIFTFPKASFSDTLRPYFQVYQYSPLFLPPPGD
UniProt Q9Y2L5: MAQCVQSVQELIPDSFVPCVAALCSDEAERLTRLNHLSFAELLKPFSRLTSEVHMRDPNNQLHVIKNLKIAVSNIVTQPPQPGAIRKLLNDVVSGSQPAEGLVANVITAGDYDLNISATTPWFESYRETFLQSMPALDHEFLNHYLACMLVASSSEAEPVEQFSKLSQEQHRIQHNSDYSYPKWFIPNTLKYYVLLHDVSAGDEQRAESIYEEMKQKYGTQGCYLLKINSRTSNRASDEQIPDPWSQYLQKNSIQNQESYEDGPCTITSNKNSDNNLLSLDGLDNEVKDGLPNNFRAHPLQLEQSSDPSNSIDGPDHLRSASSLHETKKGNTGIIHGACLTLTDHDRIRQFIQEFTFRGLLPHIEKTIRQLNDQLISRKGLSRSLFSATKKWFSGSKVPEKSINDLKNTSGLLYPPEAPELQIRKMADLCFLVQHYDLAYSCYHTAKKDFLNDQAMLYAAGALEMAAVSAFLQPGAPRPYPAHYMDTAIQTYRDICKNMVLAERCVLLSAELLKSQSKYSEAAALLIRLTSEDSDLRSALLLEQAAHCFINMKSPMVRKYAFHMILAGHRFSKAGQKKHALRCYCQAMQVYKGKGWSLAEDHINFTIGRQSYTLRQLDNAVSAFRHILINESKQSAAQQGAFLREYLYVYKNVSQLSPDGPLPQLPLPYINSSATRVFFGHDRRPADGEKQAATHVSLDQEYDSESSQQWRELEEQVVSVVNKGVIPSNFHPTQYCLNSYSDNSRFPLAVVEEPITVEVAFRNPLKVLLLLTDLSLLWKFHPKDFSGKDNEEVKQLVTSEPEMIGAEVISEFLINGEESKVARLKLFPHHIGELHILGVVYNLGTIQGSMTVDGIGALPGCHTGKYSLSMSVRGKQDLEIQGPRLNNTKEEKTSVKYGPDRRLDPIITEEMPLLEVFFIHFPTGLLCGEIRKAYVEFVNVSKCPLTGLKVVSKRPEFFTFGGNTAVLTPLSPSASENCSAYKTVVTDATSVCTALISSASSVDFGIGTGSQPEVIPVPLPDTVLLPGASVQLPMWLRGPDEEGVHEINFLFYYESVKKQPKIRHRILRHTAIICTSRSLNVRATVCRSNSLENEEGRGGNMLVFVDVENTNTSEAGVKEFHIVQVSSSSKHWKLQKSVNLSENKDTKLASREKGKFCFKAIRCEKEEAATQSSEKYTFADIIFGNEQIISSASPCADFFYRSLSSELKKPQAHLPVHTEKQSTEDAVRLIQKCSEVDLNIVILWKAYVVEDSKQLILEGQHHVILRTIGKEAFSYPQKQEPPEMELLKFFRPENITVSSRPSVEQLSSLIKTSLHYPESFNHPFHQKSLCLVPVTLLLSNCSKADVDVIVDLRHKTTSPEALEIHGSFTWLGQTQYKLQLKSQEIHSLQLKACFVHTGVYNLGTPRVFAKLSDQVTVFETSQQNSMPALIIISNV
UniProt P60174, whole entry, looked up: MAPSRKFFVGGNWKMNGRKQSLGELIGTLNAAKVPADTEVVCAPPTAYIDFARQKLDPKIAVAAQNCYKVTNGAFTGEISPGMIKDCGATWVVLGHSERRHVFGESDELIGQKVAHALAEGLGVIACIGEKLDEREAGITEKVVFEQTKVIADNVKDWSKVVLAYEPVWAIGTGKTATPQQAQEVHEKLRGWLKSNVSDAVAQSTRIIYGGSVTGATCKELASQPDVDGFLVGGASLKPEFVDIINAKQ
UniProt Q96PN7: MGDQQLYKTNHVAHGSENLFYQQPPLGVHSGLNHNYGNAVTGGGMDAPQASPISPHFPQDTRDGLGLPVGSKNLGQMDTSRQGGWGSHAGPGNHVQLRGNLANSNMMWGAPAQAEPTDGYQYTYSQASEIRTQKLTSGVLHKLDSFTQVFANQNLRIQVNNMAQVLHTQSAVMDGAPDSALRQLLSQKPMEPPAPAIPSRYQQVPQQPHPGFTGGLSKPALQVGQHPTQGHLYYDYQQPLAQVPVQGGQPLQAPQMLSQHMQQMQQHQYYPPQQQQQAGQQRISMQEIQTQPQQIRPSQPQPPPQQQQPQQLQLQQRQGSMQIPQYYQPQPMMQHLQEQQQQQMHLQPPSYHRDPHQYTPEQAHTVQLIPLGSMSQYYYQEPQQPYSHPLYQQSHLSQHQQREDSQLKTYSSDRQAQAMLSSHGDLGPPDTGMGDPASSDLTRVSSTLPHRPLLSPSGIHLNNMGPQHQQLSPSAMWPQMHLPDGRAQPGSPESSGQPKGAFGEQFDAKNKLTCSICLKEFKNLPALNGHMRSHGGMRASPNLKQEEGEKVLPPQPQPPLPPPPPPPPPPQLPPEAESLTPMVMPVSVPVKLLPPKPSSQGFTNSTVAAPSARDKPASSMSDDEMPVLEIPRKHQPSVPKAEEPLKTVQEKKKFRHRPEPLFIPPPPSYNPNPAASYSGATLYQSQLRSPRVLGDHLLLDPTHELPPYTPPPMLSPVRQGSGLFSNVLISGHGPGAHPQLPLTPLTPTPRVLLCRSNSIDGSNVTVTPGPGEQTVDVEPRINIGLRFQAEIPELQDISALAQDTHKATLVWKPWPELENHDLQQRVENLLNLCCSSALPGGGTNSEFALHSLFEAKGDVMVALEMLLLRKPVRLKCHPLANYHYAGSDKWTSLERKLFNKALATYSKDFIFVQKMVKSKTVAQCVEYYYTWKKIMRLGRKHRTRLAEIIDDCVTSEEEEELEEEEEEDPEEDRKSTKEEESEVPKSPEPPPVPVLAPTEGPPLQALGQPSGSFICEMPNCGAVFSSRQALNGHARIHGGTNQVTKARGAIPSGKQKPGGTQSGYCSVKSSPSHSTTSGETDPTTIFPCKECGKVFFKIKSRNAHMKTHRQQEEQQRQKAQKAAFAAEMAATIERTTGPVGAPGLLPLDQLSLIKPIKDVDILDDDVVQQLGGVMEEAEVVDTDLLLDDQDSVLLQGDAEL

Compound: CC1Cc2ccccc2N1C(=O)C1CCCN(C1)C(=O)CCl (mixture of isomers) [TRIM25 ligand 11 (diastereomer mixture)]
Test: probe-labelled cysteine peptide fold change vs DMSO (competition) (log2 fold change); higher = less target engagement (more negative = stronger competition)
Details: THP-1, incubation time: 4 h
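Also: competitive chemoproteomic profiling in live THP-1 cells with an iodoacetamide desthiobiotin (IA-DTB) probe, comparing probe-labelled peptide intensities in compound-treated cells against DMSO-treated controls.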

Row | Target | probe-labelled cysteine peptide fold change (10 µM) | probe-labelled cysteine peptide fold change (50 µM)
1 | TRAF7_Q6Q0C0_282_YGCTFIGNQDTYETHLETCR (UniProt Q6Q0C0) | 0.432 | 0.413
2 | TPP2_P29144_614_EGLHYTEVCGYDIASPNAGPLFR (UniProt P29144) | 0.0586 | -0.155
3 | TRIP12_Q14669_1411_DCVGGK (UniProt Q14669) | -0.0858 | -0.148
4 | TRAFD1_O14545_267_AVCEADQSHGGPR (UniProt O14545) | -0.0698 | -0.149
5 | TPM3_P06753-2_170_CLSAAEEK (UniProt P06753) | 0.396 | -0.0527
6 | TRIM14_Q14142_151_EQADSCR (UniProt Q14142) | -0.0226 | 0.0484
7 | TRAF3_Q13114_61_CHLVLCSPK (UniProt Q13114) | -0.129 | -0.0811
8 | TRAPPC10_P48553_403_SLGYLCGLVSEK (UniProt P48553) | 0.168 | 0.0086
9 | TRANK1_O15050_2361_THLCFIR (UniProt O15050) | 0.00759 | 0.134
10 | TRIM25_Q14258_179_LREFFCPEHSECICHICLVEHK (UniProt Q14258) | -0.158 | 0.0459
11 | TPP2_P29144_150_VALAEACR (UniProt P29144) | 0.0185 | 0.0364
12 | TRAP1_Q12931_527_KDTEVLFCFEQFDELTLLHLR (UniProt Q12931) | 0.119 | 0.112
13 | TRIP6_Q15654_307+310_VFHVGCFVCSTCR (UniProt Q15654) | 0.143 | 0.189
14 | TRIOBP_Q9H2D6_2280_SSCELEVLLR (UniProt Q9H2D6) | -0.0593 | -0.177
15 | TRIT1_Q9H3H1_397_SYHLCDLCDR (UniProt Q9H3H1) | 0.187 | 0.0684
16 | TRIM38_O00635_104_ETDQEMSCEEHGEQFHLFCEDEGQLICWR (UniProt O00635) | -0.0344 | -0.223
17 | TRAPPC8_Q9Y2L5_1330_SLCLVPVTLLLSNCSK (UniProt Q9Y2L5) | -0.0978 | -0.0472
18 | TPR_P12270_1127_AESQLLECK (UniProt P12270) | 0.0441 | 0.0191
19 | TPI1_P60174_255_IIYGGSVTGATCK (UniProt P60174) | 0.0956 | -0.167

Row | Target | probe-labelled cysteine peptide fold change (10 µM) | probe-labelled cysteine peptide fold change (50 µM)
20 | TRIM28_Q13263_124_QQCFSK (UniProt Q13263) | -0.0594 | 0.076
21 | TRIM24_O15164_246_DCQLLEHK (UniProt O15164) | -0.0322 | 0.016
22 | TRIM25_Q14258_174+176+179_LREFFCPEHSECICHICLVEHK (UniProt Q14258) | -0.0904 | -0.178
23 | TRABD_Q9H4I3_287_CVPSVVVGVVGMGHVPGIEK (UniProt Q9H4I3) | 0.0238 | -0.222
24 | TRAPPC11_Q7Z392_282_LCFQHNTPLDAIAQFR (UniProt Q7Z392) | -0.139 | 0.0789
25 | TRERF1_Q96PN7_514_LTCSICLK (UniProt Q96PN7) | 0.194 | 0.0958
26 | TPX2_Q9ULW0_145_CATPVIIDEILPSKK (UniProt Q9ULW0) | -0.142 | -0.299
27 | TRIP6_Q15654_304+310_VFHVGCFVCSTCR (UniProt Q15654) | 0.268 | 0.0519
28 | TPM3_P06753-2_233_EEHLCTQR (UniProt P06753) | 0.304 | -0.142
29 | TRERF1_Q96PN7_876_CHPLANYHYAGSDK (UniProt Q96PN7) | -0.0269 | -0.124
30 | TRIM34_Q9BYJ4_239_ELISDVECR (UniProt Q9BYJ4) | 0.00409 | -0.148
31 | TRIOBP_Q9H2D6_1842_SCTDVTEYAVQR (UniProt Q9H2D6) | 0.129 | 0.105
32 | TRIM25_Q14258_107_ASAPSPNAQVACDHCLK (UniProt Q14258) | 0.0339 | 0.0844
33 | TPP2_P29144_322_CDLVNYSYGEATHWPNSGR (UniProt P29144) | 0.106 | 0.257
34 | TPRN_Q4KMQ1_489_LPYLPHPARPLHPARPGCVAELQPR (UniProt Q4KMQ1) | -0.109 | 0.0636
35 | TRERF1_Q96PN7_1065_QKPGGTQSGYCSVK (UniProt Q96PN7) | -0.127 | -0.11
36 | TPI1_P60174_164_VAHALAEGLGVIACIGEKLDEREAGITEK (UniProt P60174) | -0.262 | -0.0167
37 | TRAFD1_O14545_90_LAVCQHCDLELSILK (UniProt O14545) | 0.104 | 0.0865
38 | TRAPPC8_Q9Y2L5_548_SALLLEQAAHCFINMK (UniProt Q9Y2L5) | -0.0807 | 0.0145
